Some of the results follow.
Compound: CCCS(=O)(=O)Nc1ccc(F)c(C(=O)c2c[nH]c3ncc(-c4ccc(Cl)cc4)cc23)c1F [vemurafenib]
Experiment: log2 fold change, soluble protein after heating vs DMSO (PISA); higher = thermal stabilisation; K562 lysate, 10 uM; active = over 0.2 and 3.5 SD of the protein, either way, in both replicates (recomputed)
Outline: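 Soluble protein was defined as the supernatant remaining after 21,000xg for 90 min, following pooling of heated aliquots and adjustment to 0.5% NP-40 at 4°C. Before that, crude K562 extract at 1 mg/mL protein in PBS pH 7.4 with 1 mM MgCl2 was treated with 10 μM compound for 30 min and heated for 3 min across 48°C-58°C. Quantification used TMTpro 16plex LC-MS/MS with channel sums equalised, and values are log-two fold changes in thermal stability relative to solvent controls from duplicates.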

Chains of the proteins cited; added tags and fusions are not shown. Lines headed by an entry give the natural chain unless they say otherwise; changes in a name come on top.
UniProt O14773: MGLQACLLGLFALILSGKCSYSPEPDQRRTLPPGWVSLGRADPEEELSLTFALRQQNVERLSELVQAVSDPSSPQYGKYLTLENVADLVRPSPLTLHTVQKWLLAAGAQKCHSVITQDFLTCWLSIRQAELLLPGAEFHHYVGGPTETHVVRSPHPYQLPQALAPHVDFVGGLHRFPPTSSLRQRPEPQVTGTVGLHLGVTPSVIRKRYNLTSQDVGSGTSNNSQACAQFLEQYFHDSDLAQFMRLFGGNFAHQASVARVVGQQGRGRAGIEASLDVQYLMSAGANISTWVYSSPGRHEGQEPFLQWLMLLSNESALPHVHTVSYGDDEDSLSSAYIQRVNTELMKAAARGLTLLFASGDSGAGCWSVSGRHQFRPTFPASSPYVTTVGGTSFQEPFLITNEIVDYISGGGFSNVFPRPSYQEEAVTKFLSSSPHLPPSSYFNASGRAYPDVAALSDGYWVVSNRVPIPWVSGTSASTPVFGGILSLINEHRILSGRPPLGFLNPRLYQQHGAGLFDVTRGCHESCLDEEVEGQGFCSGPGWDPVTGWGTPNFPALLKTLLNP
UniProt O43399: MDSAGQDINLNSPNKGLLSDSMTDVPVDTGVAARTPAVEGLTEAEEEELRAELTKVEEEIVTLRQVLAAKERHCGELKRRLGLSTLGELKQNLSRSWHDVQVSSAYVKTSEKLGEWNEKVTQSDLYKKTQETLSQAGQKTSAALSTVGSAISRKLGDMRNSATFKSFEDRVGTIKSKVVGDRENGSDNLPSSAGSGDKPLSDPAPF
UniProt O60784, whole entry, looked up: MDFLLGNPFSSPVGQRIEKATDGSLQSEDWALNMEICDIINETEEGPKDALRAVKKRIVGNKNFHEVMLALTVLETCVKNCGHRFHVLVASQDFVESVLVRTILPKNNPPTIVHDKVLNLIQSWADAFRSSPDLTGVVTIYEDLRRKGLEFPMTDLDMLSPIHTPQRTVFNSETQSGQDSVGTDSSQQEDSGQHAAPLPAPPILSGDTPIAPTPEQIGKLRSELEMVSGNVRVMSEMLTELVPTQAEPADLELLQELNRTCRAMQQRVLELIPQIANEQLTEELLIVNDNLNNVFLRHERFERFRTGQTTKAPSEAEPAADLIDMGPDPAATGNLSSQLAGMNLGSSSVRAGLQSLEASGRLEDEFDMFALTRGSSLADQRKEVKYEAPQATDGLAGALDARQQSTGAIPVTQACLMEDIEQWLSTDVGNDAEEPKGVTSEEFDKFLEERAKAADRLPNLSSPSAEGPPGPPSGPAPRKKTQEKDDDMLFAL
UniProt Q96MH6: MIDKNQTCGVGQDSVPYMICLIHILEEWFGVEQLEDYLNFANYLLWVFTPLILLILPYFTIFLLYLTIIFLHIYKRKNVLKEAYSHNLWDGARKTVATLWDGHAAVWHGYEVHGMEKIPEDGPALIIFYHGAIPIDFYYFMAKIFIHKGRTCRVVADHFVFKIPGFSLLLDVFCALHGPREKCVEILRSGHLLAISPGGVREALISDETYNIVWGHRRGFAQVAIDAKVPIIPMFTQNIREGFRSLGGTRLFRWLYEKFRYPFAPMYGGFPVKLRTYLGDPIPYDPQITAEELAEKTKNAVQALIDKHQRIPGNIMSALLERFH
UniProt P06753, whole entry, looked up: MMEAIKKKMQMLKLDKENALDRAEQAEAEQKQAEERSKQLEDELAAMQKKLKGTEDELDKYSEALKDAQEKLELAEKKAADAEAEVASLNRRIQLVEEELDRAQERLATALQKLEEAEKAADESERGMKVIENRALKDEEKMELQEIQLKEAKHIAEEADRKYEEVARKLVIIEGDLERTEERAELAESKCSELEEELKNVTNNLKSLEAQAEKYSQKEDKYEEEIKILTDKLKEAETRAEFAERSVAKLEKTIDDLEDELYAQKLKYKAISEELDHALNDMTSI
UniProt Q9ULW0, whole entry, looked up: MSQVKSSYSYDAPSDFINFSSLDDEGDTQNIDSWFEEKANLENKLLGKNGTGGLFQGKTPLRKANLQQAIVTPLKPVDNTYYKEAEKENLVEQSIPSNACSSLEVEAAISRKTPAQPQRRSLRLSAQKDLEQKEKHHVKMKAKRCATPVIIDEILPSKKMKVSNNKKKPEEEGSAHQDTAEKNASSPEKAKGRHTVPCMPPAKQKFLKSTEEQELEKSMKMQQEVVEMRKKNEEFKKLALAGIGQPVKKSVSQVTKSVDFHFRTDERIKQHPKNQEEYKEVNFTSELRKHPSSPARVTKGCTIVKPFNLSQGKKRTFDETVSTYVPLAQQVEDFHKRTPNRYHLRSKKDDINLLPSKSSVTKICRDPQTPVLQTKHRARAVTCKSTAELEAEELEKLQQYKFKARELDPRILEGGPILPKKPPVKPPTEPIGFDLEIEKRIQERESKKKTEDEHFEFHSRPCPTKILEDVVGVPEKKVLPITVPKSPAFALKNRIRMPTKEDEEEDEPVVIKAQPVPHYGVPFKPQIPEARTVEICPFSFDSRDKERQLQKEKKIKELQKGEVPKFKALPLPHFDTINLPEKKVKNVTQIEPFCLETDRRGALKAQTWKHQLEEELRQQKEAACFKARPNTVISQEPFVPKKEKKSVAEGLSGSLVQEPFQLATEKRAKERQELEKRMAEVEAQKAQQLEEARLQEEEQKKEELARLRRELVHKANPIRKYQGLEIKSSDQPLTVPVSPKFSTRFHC
UniProt O94826, whole entry, looked up: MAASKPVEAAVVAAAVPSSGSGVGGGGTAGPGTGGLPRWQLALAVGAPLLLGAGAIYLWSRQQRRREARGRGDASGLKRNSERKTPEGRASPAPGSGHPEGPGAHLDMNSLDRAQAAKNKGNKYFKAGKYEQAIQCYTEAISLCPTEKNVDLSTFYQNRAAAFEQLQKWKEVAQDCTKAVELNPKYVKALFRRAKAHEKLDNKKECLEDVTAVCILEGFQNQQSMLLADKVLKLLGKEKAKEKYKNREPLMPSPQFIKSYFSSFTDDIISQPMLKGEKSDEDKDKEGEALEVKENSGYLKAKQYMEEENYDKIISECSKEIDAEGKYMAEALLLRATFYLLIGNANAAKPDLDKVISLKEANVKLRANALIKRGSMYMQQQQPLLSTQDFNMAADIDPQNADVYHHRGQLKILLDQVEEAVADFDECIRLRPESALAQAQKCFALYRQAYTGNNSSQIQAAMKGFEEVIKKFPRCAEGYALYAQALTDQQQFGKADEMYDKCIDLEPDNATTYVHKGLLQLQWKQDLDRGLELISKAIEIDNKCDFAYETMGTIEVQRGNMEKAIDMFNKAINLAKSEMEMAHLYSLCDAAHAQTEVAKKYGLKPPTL
UniProt P51580: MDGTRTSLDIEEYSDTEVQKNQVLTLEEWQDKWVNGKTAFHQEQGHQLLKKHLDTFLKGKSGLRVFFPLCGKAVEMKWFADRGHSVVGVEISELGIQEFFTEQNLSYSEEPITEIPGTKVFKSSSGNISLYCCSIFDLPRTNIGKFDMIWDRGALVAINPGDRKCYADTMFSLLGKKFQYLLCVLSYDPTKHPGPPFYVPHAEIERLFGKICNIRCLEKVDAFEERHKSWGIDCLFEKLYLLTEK
UniProt Q02880: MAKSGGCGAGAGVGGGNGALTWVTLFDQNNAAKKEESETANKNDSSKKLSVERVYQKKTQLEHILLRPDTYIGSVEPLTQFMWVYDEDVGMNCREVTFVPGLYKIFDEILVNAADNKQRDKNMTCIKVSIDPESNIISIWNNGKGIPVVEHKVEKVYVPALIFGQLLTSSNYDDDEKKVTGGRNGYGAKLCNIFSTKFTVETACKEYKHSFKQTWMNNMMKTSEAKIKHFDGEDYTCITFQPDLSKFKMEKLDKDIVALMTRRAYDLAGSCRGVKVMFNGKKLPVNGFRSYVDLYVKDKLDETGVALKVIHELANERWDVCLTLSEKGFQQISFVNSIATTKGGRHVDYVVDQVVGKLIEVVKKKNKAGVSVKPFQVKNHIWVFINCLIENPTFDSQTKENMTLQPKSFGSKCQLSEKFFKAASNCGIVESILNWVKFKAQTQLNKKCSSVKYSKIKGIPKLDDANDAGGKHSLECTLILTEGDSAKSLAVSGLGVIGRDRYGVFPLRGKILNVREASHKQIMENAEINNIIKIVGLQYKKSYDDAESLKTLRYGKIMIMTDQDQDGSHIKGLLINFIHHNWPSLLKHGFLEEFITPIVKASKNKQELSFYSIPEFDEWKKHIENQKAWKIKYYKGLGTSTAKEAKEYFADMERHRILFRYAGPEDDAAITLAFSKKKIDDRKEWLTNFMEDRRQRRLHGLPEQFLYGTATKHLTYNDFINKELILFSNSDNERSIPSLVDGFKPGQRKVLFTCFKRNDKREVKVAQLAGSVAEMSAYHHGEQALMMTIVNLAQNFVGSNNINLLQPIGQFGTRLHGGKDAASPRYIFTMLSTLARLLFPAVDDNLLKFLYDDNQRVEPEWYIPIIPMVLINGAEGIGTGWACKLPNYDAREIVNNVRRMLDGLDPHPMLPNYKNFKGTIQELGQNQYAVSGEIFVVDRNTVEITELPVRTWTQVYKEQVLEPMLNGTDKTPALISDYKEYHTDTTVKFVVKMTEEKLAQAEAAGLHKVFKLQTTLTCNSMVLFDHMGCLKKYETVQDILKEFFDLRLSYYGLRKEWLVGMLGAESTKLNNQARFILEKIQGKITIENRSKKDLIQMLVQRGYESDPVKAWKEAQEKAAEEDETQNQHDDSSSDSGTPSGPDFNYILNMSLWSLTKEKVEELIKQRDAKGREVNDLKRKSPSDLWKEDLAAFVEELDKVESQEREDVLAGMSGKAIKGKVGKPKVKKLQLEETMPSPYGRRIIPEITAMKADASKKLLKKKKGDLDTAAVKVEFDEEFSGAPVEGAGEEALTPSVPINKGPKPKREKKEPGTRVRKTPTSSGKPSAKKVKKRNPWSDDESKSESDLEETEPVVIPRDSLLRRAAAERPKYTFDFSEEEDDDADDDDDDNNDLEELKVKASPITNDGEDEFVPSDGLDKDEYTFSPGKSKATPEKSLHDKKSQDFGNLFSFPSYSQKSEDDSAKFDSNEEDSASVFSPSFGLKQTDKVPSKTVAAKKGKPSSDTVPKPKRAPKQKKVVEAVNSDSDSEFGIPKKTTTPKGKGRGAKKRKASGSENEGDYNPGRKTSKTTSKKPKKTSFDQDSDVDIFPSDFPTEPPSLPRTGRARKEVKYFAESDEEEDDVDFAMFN
UniProt P67936, whole entry, looked up: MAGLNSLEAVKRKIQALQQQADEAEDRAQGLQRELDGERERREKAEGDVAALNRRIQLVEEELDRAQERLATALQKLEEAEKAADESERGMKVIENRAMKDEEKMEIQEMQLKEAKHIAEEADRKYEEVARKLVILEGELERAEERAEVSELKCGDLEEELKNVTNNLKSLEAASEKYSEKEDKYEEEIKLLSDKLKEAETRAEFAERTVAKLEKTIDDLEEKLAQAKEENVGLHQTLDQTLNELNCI
UniProt P60174, whole entry, looked up: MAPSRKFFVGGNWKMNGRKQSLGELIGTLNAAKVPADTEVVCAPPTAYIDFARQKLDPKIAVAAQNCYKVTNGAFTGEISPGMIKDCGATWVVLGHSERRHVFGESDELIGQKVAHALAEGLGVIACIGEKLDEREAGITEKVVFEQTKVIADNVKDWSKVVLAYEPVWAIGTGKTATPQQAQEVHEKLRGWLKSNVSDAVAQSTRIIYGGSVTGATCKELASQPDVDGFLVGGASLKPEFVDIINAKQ
UniProt Q96K49: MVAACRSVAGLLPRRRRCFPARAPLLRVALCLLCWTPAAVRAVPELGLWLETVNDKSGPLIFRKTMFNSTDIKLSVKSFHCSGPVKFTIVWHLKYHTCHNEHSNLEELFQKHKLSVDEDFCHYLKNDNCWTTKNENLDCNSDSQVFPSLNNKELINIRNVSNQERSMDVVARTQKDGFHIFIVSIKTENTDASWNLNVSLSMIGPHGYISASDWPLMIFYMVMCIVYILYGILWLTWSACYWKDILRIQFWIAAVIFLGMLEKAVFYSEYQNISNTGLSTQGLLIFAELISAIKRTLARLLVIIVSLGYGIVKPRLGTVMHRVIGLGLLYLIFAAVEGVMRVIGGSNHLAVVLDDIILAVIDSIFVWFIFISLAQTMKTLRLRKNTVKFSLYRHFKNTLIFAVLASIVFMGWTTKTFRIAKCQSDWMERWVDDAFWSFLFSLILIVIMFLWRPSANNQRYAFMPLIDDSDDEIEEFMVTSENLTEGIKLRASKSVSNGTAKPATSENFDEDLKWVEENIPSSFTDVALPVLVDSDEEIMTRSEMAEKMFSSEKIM
UniProt P28289: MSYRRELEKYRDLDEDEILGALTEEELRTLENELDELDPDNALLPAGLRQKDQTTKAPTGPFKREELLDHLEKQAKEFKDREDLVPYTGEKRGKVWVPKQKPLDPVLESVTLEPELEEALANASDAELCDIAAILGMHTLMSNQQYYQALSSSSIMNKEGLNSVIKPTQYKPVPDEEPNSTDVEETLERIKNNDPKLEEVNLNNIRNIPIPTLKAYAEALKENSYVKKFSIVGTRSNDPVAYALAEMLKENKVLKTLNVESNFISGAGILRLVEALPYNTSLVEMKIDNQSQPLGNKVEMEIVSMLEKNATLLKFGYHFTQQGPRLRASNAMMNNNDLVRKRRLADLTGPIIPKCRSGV

log2 fold change, inactive:
TMX3 (UniProt Q96JJ7) 0.039
TOR3A (UniProt Q9H497) -0.001
TMEM63B (UniProt Q5T3F8) 0.02
TPP2 (UniProt P29144) -0.015
TPP1 (UniProt O14773) -0.032
TNIK isoform 4 (UniProt Q9UKE5) 0.002
TPD52L2 isoform 7 (UniProt O43399) -0.02
TMEM38B (UniProt Q9NVV0) -0.016
TRA2A (UniProt Q13595) -0.197
TOMM22 (UniProt Q9NS69) 0.02
TPM1 isoform 4 (UniProt P09493) -0.049
TOM1 isoform 2 (UniProt O60784) -0.006
TMOD3 (UniProt Q9NYL9) 0.004
TMEM97 (UniProt Q5BJF2) 0.076
TMEM68 (UniProt Q96MH6) 0.076
TPM3 isoform 2 (UniProt P06753) -0.052
TPX2 (UniProt Q9ULW0) -0.006
TOP1 (UniProt P11387) -0.002
TNIP1 (UniProt Q15025) -0.013
TOMM70 (UniProt O94826) 0.047
TMEM219 (UniProt Q86XT9) -0.122
TPMT (UniProt P51580) 0.005
TP53I3 (UniProt Q53FA7) -0.025
TPST2 (UniProt O60704) 0.053
TOP2B isoform 2 (UniProt Q02880) -0.031
TPM3 (UniProt P06753) -0.008
TPM4 isoform 2 (UniProt P67936) 0.031
TPI1 (UniProt P60174) 0.011
TMEM87B (UniProt Q96K49) -0.004
TNFRSF1B (UniProt P20333) 0.077
TMEM245 (UniProt Q9H330) 0.055
TONSL (UniProt Q96HA7) 0.029
TMOD1 (UniProt P28289) -0.015

Looked up one by one from the entries so far:
log2 fold change, inactive:
TMOD3 (UniProt Q9NYL9) 0.004
TPMT (UniProt P51580) 0.005
